Values from PubChem BioAssay AID1224830 (NIAID, 2016)

Assay: 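Regulators of TLR4 signalling towards TNF-alpha in macrophage-like cells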 (primary screen)
System: human THP-1 monocytic leukaemia cells, TNF dual-luciferase reporter clone, PMA-differentiated to macrophage-like cells
Reagents: siRNA pool against human genes, 50 nM
Time to read-out: LPS for 4 h, given about 3 days after siRNA transfection
Challenge: bacterial LPS (TLR4 ligand), 10 ng/ml
Detection: 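TNF firefly reporter luminescence divided by renilla, normalised to the plate median, then turned into a robust z-score for each replicate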
Scale: TNF reporter robust z-score: higher = stronger TNF reporter response to LPS
Call rule: 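a well is active when its z-score exceeds 2.8 or falls below -1.5; control wells carry no call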
Here is an unselected part of about 18,000 reagents tested. Over the whole deposit, about 2,900 (16%) got an active call. 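Calls are made per well; low scores hint the gene aids the LPS response, high scores that it dampens it.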 A number with no mark means an inactive call. Repeated entries: four replicate wells of each siRNA pool.

| Gene | PubChem SID | TNF reporter robust z-score |
| --- | --- | --- |
| WFDC1 (WAP four-disulfide core domain 1) | SID315458616 | -0.09 |
| WFDC1 (WAP four-disulfide core domain 1) | SID315458616 | -1.05 |
| WFDC1 (WAP four-disulfide core domain 1) | SID315458616 | -1.41 |
| WFDC1 (WAP four-disulfide core domain 1) | SID315458616 | -1.25 |
| MIS18BP1 (MIS18 binding protein 1) | SID315457591 | 1.23 |
| MIS18BP1 (MIS18 binding protein 1) | SID315457591 | 0.71 |
| MIS18BP1 (MIS18 binding protein 1) | SID315457591 | 0.45 |
| MIS18BP1 (MIS18 binding protein 1) | SID315457591 | 0.89 |
| SPTSSB (serine palmitoyltransferase small subunit B) | SID315462829 | -1.36 |
| SPTSSB (serine palmitoyltransferase small subunit B) | SID315462829 | -1.16 |
| SPTSSB (serine palmitoyltransferase small subunit B) | SID315462829 | 0.53 |
| SPTSSB (serine palmitoyltransferase small subunit B) | SID315462829 | -0.16 |
| ZNF786 (zinc finger protein 786) | SID315462004 | 0.24 |
| ZNF786 (zinc finger protein 786) | SID315462004 | 0.43 |
| ZNF786 (zinc finger protein 786) | SID315462004 | -0.21 |
| ZNF786 (zinc finger protein 786) | SID315462004 | -0.27 |
| EPM2A (EPM2A glucan phosphatase, laforin) | SID315452356 | -1.62 (active) |
| EPM2A (EPM2A glucan phosphatase, laforin) | SID315452356 | 1.02 |
| EPM2A (EPM2A glucan phosphatase, laforin) | SID315452356 | 1.21 |
| EPM2A (EPM2A glucan phosphatase, laforin) | SID315452356 | 1.15 |
| IHO1 (interactor of HORMAD1 1) | SID315464051 | -1.36 |
| IHO1 (interactor of HORMAD1 1) | SID315464051 | -1.69 (active) |
| IHO1 (interactor of HORMAD1 1) | SID315464051 | -1.8 (active) |
| IHO1 (interactor of HORMAD1 1) | SID315464051 | -1.48 |
| GPR65 (G protein-coupled receptor 65) | SID315452588 | 0.2 |
| GPR65 (G protein-coupled receptor 65) | SID315452588 | 1.44 |
| GPR65 (G protein-coupled receptor 65) | SID315452588 | -0.1 |
| GPR65 (G protein-coupled receptor 65) | SID315452588 | 0.5 |
| SH3BGRL3 (SH3 domain binding glutamate rich protein like 3) | SID315459988 | -1.37 |
| SH3BGRL3 (SH3 domain binding glutamate rich protein like 3) | SID315459988 | -1.39 |
| SH3BGRL3 (SH3 domain binding glutamate rich protein like 3) | SID315459988 | -0.72 |
| ZNF592 (zinc finger protein 592) | SID315453443 | -0.45 |
| ZNF592 (zinc finger protein 592) | SID315453443 | 0.4 |
| ZNF592 (zinc finger protein 592) | SID315453443 | -1.79 (active) |
| ZNF592 (zinc finger protein 592) | SID315453443 | -1.54 (active) |
| PRKCA (protein kinase C alpha) | SID315450802 | 1.88 |
| PRKCA (protein kinase C alpha) | SID315450802 | 0.82 |
| PRKCA (protein kinase C alpha) | SID315450802 | 1.3 |
| PRKCA (protein kinase C alpha) | SID315450802 | 2.36 |
| BUD13 (BUD13 spliceosome associated protein) | SID315460508 | 1.43 |
| BUD13 (BUD13 spliceosome associated protein) | SID315460508 | 0.83 |
| BUD13 (BUD13 spliceosome associated protein) | SID315460508 | -0.24 |
| BUD13 (BUD13 spliceosome associated protein) | SID315460508 | -0.01 |
| AGR3 | SID315462617 | -0.8 |
| AGR3 | SID315462617 | -0.41 |
| AGR3 | SID315462617 | -0.01 |
| AGR3 | SID315462617 | -0.26 |
| VCX3A (variable charge X-linked 3A) | SID315456736 | -1.39 |
| VCX3A (variable charge X-linked 3A) | SID315456736 | -1.17 |
| VCX3A (variable charge X-linked 3A) | SID315456736 | -0.38 |
| VCX3A (variable charge X-linked 3A) | SID315456736 | -0.43 |
| HTATIP2 (HIV-1 Tat interactive protein 2) | SID315454183 | 1.85 |
| HTATIP2 (HIV-1 Tat interactive protein 2) | SID315454183 | 0.04 |
| HTATIP2 (HIV-1 Tat interactive protein 2) | SID315454183 | 0.22 |
| HTATIP2 (HIV-1 Tat interactive protein 2) | SID315454183 | 1.45 |
| NRCAM (neuronal cell adhesion molecule) | SID315450308 | 0.21 |
| NRCAM (neuronal cell adhesion molecule) | SID315450308 | 1.66 |
| NRCAM (neuronal cell adhesion molecule) | SID315450308 | 0.27 |
| NRCAM (neuronal cell adhesion molecule) | SID315450308 | -0.84 |
| ELF3 (E74 like ETS transcription factor 3) | SID315448491 | 0.63 |
| ELF3 (E74 like ETS transcription factor 3) | SID315448491 | 2.04 |
| ELF3 (E74 like ETS transcription factor 3) | SID315448491 | 1.05 |
| ELF3 (E74 like ETS transcription factor 3) | SID315448491 | 1.58 |
| CIAO3 (cytosolic iron-sulfur assembly component 3) | SID315458929 | 0.15 |
| CIAO3 (cytosolic iron-sulfur assembly component 3) | SID315458929 | -0.72 |
| CIAO3 (cytosolic iron-sulfur assembly component 3) | SID315458929 | -0.99 |
| DNASE1L2 (deoxyribonuclease 1 like 2) | SID315448341 | 0.95 |
| DNASE1L2 (deoxyribonuclease 1 like 2) | SID315448341 | 1.61 |
| DNASE1L2 (deoxyribonuclease 1 like 2) | SID315448341 | 1.21 |
| DNASE1L2 (deoxyribonuclease 1 like 2) | SID315448341 | 0.9 |
| ANAPC13 (anaphase promoting complex subunit 13) | SID315455507 | 0.49 |
| ANAPC13 (anaphase promoting complex subunit 13) | SID315455507 | 0.44 |
| ANAPC13 (anaphase promoting complex subunit 13) | SID315455507 | 0.4 |
| ANAPC13 (anaphase promoting complex subunit 13) | SID315455507 | 0.18 |
| KARS1 (lysyl-tRNA synthetase 1) | SID315449591 | -0.79 |
| KARS1 (lysyl-tRNA synthetase 1) | SID315449591 | -0.78 |
| KARS1 (lysyl-tRNA synthetase 1) | SID315449591 | -0.85 |
| KARS1 (lysyl-tRNA synthetase 1) | SID315449591 | -0.6 |
| SCN7A (sodium voltage-gated channel alpha subunit 7) | SID315451315 | -0.36 |
| SCN7A (sodium voltage-gated channel alpha subunit 7) | SID315451315 | -0.63 |
| SCN7A (sodium voltage-gated channel alpha subunit 7) | SID315451315 | 0.03 |
| SLCO5A1 | SID315459948 | -0.88 |
| SLCO5A1 | SID315459948 | -0.31 |
| SLCO5A1 | SID315459948 | 0.38 |
| SLCO5A1 | SID315459948 | 0.93 |
| TSHZ2 (teashirt zinc finger homeobox 2) | SID315461803 | 0.42 |
| TSHZ2 (teashirt zinc finger homeobox 2) | SID315461803 | -0.22 |
| TSHZ2 (teashirt zinc finger homeobox 2) | SID315461803 | -0.32 |
| TSHZ2 (teashirt zinc finger homeobox 2) | SID315461803 | 0.03 |
| MILR1 (mast cell immunoglobulin like receptor 1) | SID315463726 | 1.1 |
| MILR1 (mast cell immunoglobulin like receptor 1) | SID315463726 | 0.36 |
| MILR1 (mast cell immunoglobulin like receptor 1) | SID315463726 | 0.39 |
| MILR1 (mast cell immunoglobulin like receptor 1) | SID315463726 | 2.15 |
| GJB2 (gap junction protein beta 2) | SID315448904 | -0.32 |
| GJB2 (gap junction protein beta 2) | SID315448904 | 1.2 |
| GJB2 (gap junction protein beta 2) | SID315448904 | 0.66 |
| GJB2 (gap junction protein beta 2) | SID315448904 | 1.53 |
| MED10 (mediator complex subunit 10) | SID315460261 | -1.98 (active) |
| MED10 (mediator complex subunit 10) | SID315460261 | -1.88 (active) |
| MED10 (mediator complex subunit 10) | SID315460261 | -1.59 (active) |
| MED10 (mediator complex subunit 10) | SID315460261 | -1.54 (active) |
| CDK15 (cyclin dependent kinase 15) | SID315459076 | 0.37 |
| CDK15 (cyclin dependent kinase 15) | SID315459076 | -0.06 |
| CDK15 (cyclin dependent kinase 15) | SID315459076 | -0.32 |
| CDK15 (cyclin dependent kinase 15) | SID315459076 | 0 |
| MAPKAPK5 (MAPK activated protein kinase 5) | SID315452649 | 1.43 |
| MAPKAPK5 (MAPK activated protein kinase 5) | SID315452649 | -0.94 |
| MAPKAPK5 (MAPK activated protein kinase 5) | SID315452649 | 0.19 |
| MAPKAPK5 (MAPK activated protein kinase 5) | SID315452649 | 1.96 |
| OR8J1 (olfactory receptor family 8 subfamily J member 1) | SID315463171 | -0.97 |
| OR8J1 (olfactory receptor family 8 subfamily J member 1) | SID315463171 | -0.67 |
| OR8J1 (olfactory receptor family 8 subfamily J member 1) | SID315463171 | 0.23 |
| OR8J1 (olfactory receptor family 8 subfamily J member 1) | SID315463171 | 0.24 |

Active calls, among the entries above:
| Gene | PubChem SID | TNF reporter robust z-score |
| --- | --- | --- |
| EPM2A (EPM2A glucan phosphatase, laforin) | SID315452356 | -1.62 (active) |
| IHO1 (interactor of HORMAD1 1) | SID315464051 | -1.69 (active) |
| IHO1 (interactor of HORMAD1 1) | SID315464051 | -1.8 (active) |
| ZNF592 (zinc finger protein 592) | SID315453443 | -1.79 (active) |
| ZNF592 (zinc finger protein 592) | SID315453443 | -1.54 (active) |
| MED10 (mediator complex subunit 10) | SID315460261 | -1.98 (active) |
| MED10 (mediator complex subunit 10) | SID315460261 | -1.88 (active) |
| MED10 (mediator complex subunit 10) | SID315460261 | -1.59 (active) |
| MED10 (mediator complex subunit 10) | SID315460261 | -1.54 (active) |
